Test results published in the supplement of paper PMC11098740.
Some of the results follow. Many values rest on one well or one pass, so single values are uncertain.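 Test system: a mixed pool of 41 HAP1 clones in which 61 cancer-associated proteins carry fluorescent tags inserted into introns, and each clone is identified from its image pattern. Read-outs are compared with DMSO-treated control wells. The BRD4 degrader dBET6 served as the positive control.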

Chains of the proteins cited; added tags and fusions are not shown.
UniProt O14980, whole entry: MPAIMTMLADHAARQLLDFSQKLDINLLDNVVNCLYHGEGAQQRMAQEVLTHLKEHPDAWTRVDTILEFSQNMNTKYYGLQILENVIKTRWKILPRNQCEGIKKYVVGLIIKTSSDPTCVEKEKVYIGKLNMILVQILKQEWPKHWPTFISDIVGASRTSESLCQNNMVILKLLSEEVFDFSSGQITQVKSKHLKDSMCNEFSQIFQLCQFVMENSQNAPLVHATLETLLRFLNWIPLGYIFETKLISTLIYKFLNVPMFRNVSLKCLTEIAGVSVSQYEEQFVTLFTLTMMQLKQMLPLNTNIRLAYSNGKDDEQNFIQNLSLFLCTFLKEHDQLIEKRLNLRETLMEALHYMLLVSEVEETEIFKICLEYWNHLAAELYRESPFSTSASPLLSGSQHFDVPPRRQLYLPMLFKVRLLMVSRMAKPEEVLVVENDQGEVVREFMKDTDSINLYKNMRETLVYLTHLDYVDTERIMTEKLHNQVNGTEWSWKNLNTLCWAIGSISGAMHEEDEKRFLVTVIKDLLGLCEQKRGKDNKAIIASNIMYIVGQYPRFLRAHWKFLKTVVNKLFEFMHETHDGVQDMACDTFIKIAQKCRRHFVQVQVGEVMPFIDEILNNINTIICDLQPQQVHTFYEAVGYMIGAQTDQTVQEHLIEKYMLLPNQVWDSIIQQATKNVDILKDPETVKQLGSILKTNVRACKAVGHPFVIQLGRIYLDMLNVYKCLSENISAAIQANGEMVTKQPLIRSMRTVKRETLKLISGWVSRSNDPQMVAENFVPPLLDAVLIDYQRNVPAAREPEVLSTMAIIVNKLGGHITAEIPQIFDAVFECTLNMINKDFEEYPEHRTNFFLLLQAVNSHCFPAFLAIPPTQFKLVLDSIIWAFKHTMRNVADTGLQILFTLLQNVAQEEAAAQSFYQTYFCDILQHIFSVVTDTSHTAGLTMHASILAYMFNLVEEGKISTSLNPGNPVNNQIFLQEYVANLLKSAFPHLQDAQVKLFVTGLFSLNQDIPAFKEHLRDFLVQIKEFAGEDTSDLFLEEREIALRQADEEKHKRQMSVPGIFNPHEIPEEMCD

Legend:
[1] = molecular target: XPO1 (intron 15 mScarlet tag, HAP1) (UniProt O14980); test: XPO1 fluorescence intensity change vs DMSO (log2 fold change); higher = more XPO1 protein; settings: 6 h
[2] = molecular target: BRD4 (intron 10 mScarlet tag, HAP1) (UniProt O60885); test: BRD4 median nuclear fluorescence intensity change vs DMSO (log2 fold change); higher = more BRD4 protein; settings: 6 h

| Structure (SMILES) | XPO1 fluorescence intensity change (log2) [1] | BRD4 median nuclear fluorescence intensity change (log2) [2] |
| --- | --- | --- |
| CCOC(=O)c1oc2ccccc2c1CSc1nncc2ccccc12 (10 µM) | -0.125 | -0.00403 |
| Cc1cccc(C)c1OCC(O)CNc1ncnc2sccc12 (stereo unspecified) (10 µM) | -0.16 | -0.044 |
| COc1ccc(-c2cc(-c3c(O)ccc4ccccc34)[nH]n2)cc1OC (10 µM) | -0.0366 | 0.00518 |
| CCOc1ccc(CCNC(=O)c2ccc(OC)c(F)c2)cc1OCC (10 µM) | -0.0084 | -0.0924 |
| COc1cn(-c2ccccc2)nc1C(=O)Nc1cccnc1N1CCCC1 (1 µM) | 0.0341 | 0.111 |
| Cc1cnc(NC(=O)Nc2cc(Br)c(C)cc2OC[C@@H]2CNCCO2)cn1 (20 µM) | -0.164 | -0.139 |
| CN(C)C(=O)c1ccc(OCc2ccc(F)c3cccnc23)cc1 (10 µM) | -0.0117 | 0.0804 |
| O=C(Nc1ccc(F)cc1)c1nnc(CCl)s1 (10 µM) | -0.000826 | 0.0617 |
| COc1ccc(CN(C)c2nc(C(F)(F)F)nc3ccccc23)cc1OC (1 µM) | -0.104 | -0.216 |
| CC(=O)Nc1nc2ccc(NC(=O)c3c(C)nn(C)c3C)cc2s1 (10 µM) | -0.124 | -0.0064 |
| COC(=O)C1=C(CCl)NC(=O)NC1c1ccccc1 (stereo unspecified) (10 µM) | 0.0156 | 0.113 |
| NNC(=O)c1cc(-c2cccs2)nc2ccccc12 (10 µM) | -0.168 | 0.014 |
| CCN(/N=C/c1c(OC)nc2sccn12)c1ccc(C)cc1 (10 µM) | -0.0115 | 0.0813 |
| c1csc(-c2nnc(Sc3ccc4nccnc4n3)o2)c1 (10 µM) | 0.123 | 0.116 |
| O=C(/C=C/c1ccccc1Br)c1ccc(O)c(CCCl)c1 (10 µM) | -0.0626 | -0.0925 |
| O=C(Nc1ncc(Cc2ccc(F)cc2)s1)c1ccc2c(c1)OCO2 (1 µM) | -0.108 | -0.058 |
| CN(C)c1ccc(C(=NC(=O)c2cccc(S(=O)(=O)N3CCCCC3)c2)c2ccc(N(C)C)cc2)cc1 (0.1 µM) | -0.0634 | 0.12 |
| CC(C)(C)c1ccc(S(=O)(=O)NCc2ccc(C(=O)Nc3cccnc3)cc2)cc1 (0.1 µM) | 0.069 | 0.0823 |

Grouped by structure: the compounds so far with an aryl thioether with sulfur outside any ring.

| Structure (SMILES) | XPO1 fluorescence intensity change (log2) [1] | BRD4 median nuclear fluorescence intensity change (log2) [2] |
| --- | --- | --- |
| CCOC(=O)c1oc2ccccc2c1CSc1nncc2ccccc12 (10 µM) | -0.125 | -0.00403 |
| c1csc(-c2nnc(Sc3ccc4nccnc4n3)o2)c1 (10 µM) | 0.123 | 0.116 |
